PMC6420573
No constants are given. Whether binding was seen depends on the method and setting. In cells and extracts the contact can be indirect. Some results given as binding are weak or reduced against the parent protein; the word gives no strength. Where a sequence is shown, tags or fusion partners need not be part of it.

Sequences of proteins named here, by UniProt entry; tags and fusion partners are left off.
UniProt P22002: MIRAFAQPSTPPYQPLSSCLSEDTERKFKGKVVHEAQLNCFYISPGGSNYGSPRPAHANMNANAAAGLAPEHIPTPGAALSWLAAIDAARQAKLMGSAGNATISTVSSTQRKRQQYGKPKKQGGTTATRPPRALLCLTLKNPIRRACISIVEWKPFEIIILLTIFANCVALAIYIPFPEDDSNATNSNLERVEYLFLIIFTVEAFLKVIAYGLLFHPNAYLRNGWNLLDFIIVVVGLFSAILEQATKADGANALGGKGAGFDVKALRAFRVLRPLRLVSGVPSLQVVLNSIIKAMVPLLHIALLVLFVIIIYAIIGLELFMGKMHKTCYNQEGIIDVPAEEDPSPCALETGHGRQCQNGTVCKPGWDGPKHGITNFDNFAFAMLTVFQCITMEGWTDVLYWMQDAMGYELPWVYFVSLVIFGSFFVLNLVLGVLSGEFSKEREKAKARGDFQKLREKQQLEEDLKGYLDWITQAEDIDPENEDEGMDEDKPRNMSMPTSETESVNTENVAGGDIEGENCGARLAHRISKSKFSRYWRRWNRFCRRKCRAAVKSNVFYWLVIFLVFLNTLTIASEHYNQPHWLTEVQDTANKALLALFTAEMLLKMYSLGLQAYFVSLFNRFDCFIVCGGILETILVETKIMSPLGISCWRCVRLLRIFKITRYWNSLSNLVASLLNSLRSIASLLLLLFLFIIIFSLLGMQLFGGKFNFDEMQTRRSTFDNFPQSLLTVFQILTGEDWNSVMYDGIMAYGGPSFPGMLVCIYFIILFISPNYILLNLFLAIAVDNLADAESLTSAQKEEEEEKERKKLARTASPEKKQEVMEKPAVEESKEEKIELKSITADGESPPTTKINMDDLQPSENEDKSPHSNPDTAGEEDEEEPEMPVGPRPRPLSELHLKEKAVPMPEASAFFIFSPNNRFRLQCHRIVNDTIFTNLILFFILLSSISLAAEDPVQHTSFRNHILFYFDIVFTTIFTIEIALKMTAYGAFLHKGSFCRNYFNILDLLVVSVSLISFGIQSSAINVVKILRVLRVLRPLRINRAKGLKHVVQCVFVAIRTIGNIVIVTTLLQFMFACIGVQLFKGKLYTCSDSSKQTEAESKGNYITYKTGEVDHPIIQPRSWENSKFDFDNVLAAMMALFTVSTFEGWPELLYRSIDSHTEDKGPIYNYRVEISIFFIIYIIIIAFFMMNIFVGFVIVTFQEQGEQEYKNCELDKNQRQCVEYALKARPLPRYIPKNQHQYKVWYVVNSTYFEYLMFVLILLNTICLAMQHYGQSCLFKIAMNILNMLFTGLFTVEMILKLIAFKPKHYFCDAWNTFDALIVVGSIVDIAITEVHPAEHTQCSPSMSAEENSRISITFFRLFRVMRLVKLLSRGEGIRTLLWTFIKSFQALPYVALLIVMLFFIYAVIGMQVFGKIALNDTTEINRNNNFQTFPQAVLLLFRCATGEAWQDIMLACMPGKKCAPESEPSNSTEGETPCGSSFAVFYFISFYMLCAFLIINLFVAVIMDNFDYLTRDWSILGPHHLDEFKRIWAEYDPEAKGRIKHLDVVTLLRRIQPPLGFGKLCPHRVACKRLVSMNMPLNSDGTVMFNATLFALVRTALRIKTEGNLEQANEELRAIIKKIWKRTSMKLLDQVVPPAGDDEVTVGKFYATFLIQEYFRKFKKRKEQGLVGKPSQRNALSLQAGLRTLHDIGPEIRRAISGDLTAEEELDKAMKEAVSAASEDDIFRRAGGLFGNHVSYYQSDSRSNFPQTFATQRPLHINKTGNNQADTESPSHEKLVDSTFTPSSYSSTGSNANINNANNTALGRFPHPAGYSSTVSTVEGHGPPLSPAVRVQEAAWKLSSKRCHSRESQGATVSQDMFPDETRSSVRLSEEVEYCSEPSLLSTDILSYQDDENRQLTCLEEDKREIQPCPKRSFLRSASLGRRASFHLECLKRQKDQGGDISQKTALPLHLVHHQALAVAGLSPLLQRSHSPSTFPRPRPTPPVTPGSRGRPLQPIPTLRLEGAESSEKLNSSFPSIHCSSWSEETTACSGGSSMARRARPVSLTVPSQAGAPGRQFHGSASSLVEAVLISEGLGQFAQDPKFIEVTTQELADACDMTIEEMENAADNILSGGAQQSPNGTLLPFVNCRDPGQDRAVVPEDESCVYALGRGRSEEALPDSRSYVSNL
UniProt P27732: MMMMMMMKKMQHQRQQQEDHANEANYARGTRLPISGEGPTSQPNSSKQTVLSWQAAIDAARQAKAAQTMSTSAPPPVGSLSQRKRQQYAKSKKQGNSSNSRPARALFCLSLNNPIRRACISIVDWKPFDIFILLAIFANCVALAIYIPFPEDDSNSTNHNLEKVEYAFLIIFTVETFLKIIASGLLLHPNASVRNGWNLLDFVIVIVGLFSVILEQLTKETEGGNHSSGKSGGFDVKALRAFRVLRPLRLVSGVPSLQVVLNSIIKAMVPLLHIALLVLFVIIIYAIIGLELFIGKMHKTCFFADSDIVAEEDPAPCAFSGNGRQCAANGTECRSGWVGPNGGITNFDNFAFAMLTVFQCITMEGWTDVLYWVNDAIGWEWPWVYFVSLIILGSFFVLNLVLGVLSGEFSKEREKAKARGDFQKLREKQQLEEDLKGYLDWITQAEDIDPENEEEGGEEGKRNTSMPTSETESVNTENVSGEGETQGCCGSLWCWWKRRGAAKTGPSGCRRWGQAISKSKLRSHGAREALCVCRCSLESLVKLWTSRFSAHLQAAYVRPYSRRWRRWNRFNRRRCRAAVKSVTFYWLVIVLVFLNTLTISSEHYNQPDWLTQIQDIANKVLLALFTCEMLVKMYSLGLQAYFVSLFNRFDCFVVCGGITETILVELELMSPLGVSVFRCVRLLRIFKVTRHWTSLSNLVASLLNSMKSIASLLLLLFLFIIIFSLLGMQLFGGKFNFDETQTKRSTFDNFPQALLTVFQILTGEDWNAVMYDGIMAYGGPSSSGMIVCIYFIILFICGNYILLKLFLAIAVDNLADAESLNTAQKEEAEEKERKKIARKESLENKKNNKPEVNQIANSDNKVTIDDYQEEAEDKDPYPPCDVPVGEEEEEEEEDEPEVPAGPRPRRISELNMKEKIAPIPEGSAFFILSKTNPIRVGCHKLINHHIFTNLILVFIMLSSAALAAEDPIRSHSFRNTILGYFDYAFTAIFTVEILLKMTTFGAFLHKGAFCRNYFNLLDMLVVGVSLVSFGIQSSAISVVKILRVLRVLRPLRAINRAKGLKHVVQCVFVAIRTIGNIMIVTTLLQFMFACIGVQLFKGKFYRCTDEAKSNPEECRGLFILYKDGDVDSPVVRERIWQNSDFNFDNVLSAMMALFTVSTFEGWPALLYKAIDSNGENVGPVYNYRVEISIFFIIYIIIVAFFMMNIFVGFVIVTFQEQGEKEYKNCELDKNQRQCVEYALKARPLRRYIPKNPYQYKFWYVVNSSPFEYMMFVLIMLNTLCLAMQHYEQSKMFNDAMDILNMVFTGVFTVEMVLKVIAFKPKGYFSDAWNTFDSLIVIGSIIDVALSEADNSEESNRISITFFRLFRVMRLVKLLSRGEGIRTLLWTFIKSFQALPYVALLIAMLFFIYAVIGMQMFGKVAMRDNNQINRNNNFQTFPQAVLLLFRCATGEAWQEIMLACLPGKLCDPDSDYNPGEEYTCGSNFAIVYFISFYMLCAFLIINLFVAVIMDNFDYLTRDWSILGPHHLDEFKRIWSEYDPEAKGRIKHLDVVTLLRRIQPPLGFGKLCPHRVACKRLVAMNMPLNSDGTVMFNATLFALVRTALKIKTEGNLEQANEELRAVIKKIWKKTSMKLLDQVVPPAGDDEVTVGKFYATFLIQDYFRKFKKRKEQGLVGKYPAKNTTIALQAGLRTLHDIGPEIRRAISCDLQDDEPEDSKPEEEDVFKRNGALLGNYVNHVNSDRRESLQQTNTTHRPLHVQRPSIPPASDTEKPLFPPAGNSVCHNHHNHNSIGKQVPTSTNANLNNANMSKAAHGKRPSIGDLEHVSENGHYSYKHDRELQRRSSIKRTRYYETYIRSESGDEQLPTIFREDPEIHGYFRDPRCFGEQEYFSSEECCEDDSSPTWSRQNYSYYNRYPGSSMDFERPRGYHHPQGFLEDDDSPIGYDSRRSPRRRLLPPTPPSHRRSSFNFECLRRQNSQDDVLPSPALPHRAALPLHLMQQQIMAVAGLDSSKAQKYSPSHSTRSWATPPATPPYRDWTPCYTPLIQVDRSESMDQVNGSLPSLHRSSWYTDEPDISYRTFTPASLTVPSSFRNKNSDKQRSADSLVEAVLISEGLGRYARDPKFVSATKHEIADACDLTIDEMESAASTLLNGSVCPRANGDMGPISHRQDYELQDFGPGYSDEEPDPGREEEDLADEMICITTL

Legend:
[1] = biological target: L-type CaV1.2 (CACNA1C) (rat (endogenous in INS-1 832/13)) (UniProt P22002); experiment: proximity ligation; Duolink in situ detection in fixed (3% PFA), permeabilised INS-1 832/13 cells; endogenous proteins; primary antibodies rabbit anti-CaVγ4 and mouse anti-CaV1.3; cells treated with 5 or 20 mM glucose (24 h); spots imaged by confocal microscopy
[2] = biological target: L-type CaV1.3 (CACNA1D) (rat (endogenous in INS-1 832/13)) (UniProt P27732); experiment: as above

- binding [2]: binds
B1: voltage-gated Ca2+ channel subunit gamma4 (CaVγ4) (protein, UniProt Q8VHW9 1-327)
chain: MVRCDRGLQMLLTTAGAFAAFSLMAIAIGTDYWLYSSAHICNGTNLTMDDGPPPRRARGDLTHSGLWRVCCIEGIYKGHCFRINHFPEDNDYDHDSSEYLLRIVRASSVFPILSTILLLLGGLCIGAGRIYSRKNNIVLSAGILFVAAGLSNIIGIIVYISSNTGDPSDKRDEDKKNHYNYGWSFYFGALSFIVAETVGVLAVNIYIEKNKELRFKTKREFLKASSSSPYSRMPSYRYRRRRSRSSSRSTEASPSRDASPVGLKITGAIPMGELSMYTLSREPLKVTTAASYSPDQDAGFLQMHDFFQQDLKEGFHVSMLNRRTTPV
- binding [1]: no binding
